Measured values as given in paper PMC4671723.
Results are given in words; binding and its absence hold for the method and conditions named. In cells and extracts the contact can be indirect. Here binding means that the protein was enriched with, or labelled near, the bait; the list need not be complete. For some of these results: No binding means not detected with the bait. Tags and fused reporters may be left off the sequences shown.

T1: GFP-CLF (CURLY LEAF fused to GFP) (Arabidopsis) (UniProt P93831)
T1 sequence: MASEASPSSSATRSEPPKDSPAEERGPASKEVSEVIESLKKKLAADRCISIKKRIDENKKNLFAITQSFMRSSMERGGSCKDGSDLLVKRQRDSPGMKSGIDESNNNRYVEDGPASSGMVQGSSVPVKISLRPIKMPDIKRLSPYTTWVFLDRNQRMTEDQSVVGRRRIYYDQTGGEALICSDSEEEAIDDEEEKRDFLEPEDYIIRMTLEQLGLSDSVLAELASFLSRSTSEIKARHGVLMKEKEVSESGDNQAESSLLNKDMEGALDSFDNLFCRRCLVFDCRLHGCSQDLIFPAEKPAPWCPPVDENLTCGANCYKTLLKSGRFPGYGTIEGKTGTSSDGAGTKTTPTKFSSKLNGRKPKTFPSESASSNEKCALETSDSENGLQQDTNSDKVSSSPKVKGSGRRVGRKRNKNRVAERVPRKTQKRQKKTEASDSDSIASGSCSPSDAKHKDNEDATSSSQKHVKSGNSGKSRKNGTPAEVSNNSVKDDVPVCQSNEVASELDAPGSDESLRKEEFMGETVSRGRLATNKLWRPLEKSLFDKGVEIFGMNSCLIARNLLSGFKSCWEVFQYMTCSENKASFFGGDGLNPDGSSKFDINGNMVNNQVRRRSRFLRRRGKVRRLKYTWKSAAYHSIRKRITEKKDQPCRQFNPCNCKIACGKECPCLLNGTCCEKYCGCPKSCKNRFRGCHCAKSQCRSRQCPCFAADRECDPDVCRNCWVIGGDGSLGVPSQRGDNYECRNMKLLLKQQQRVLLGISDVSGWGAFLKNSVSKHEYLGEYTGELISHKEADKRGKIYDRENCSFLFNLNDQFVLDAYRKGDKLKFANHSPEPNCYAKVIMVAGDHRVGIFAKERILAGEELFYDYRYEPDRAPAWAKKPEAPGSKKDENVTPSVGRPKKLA

T2: ALP1-GFP (ANTAGONIST OF LIKE HETEROCHROMATIN PROTEIN1 fused in frame to GFP) (Arabidopsis) (UniProt Q94K49)
T2 sequence: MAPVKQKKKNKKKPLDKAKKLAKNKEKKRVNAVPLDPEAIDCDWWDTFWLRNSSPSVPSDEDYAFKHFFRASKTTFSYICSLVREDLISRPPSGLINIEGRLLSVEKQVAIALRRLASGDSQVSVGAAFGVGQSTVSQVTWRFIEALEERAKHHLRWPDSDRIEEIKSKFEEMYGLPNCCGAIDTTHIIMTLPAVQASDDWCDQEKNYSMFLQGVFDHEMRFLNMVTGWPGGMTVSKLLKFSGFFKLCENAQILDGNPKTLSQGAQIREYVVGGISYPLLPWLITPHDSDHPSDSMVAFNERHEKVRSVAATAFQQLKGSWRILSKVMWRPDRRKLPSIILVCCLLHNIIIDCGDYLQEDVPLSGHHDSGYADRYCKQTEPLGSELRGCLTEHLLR

T3: ALP1-GFP (ANTAGONIST OF LIKE HETEROCHROMATIN PROTEIN1 fused in frame to GFP) (Arabidopsis), Q94K49
T3 chain: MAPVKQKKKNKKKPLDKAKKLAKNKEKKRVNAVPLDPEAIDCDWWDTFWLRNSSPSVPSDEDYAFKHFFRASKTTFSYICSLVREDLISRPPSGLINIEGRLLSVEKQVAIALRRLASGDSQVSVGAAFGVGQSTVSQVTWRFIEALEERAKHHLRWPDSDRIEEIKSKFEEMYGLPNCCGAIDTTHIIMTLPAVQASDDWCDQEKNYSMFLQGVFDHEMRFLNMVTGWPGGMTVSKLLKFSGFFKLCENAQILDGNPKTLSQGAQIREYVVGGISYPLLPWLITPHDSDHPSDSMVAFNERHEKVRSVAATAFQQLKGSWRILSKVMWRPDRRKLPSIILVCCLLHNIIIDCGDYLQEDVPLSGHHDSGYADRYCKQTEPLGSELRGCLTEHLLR


Legend:
Assay in all cases: affinity purification with mass spectrometry; GFP-tagged bait immunoprecipitated from extracts of transgenic Arabidopsis plants (pALP1::ALP1-GFP, 35S::ALP1-GFP, 35S::GFP-CLF, 35S::GFP control); co-purifying proteins identified by mass spectrometry (IP-MS); three independent replicates
[1] = target: T1, GFP-CLF (CURLY LEAF fused to GFP) (Arabidopsis)
[2] = target: T2, ALP1-GFP (ANTAGONIST OF LIKE HETEROCHROMATIN PROTEIN1 fused in frame to GFP) (Arabidopsis)
[3] = target: T3, ALP1-GFP (ANTAGONIST OF LIKE …); details: remark: other sources report otherwise

Binder	binding [1]	binding [2]	binding [3]
EMBRYONIC FLOWER1 (EMF1) (protein, UniProt Q9LYD9 1-1096) MGSSIKINSISIDLAGAANEIDMVKCDHFSMRGFVAETRERDLRKCWPFSEESVSLVDQQSYTLPTLSVPKFRWWHCMSCIKDIDAHGPKDCGLHSNSKAIGNSSVIESKSKFNSLTIIDHEKEKKTDIADNAIEEKVGVNCENDDQTATTFLKKARGRPMGASNVRSKSRKLVSPEQVGNNRSKEKLNKPSMDISSWKEKQNVDQAVTTFGSSEIAGVVEDTPPKATKNHKGIRGLMECDNGSSESINLAMSGLQRRKSRKVRLLSELLGNTKTSGGSNIRKEESALKKESVRGRKRKLLPENNYVSRILSTMGATSENASKSCDSDQGNSESTDSGFDRTPFKGKQRNRRFQVVDEFVPSLPCETSQEGIKEHDADPSKRSTPAHSLFTGNDSVPCPPGTQRTERKLSLPKKKTKKPVIDNGKSTVISFSNGIDGSQVNSHTGPSMNTVSQTRDLLNGKRVGGLFDNRLASDGYFRKYLSQVNDKPITSLHLQDNDYVRSRDAEPNCLRDFSSSSKSSSGGWLRTGVDIVDFRNNNHNTNRSSFSNLKLRYPPSSTEVADLSRVLQKDASGADRKGKTVMVQEHHGAPRSQSHDRKETTTEEQNNDDIPMEIVELMAKNQYERCLPDKEEDVSNKQPSQETAHKSKNALLIDLNETYDNGISLEDNNTSRPPKPCSSNARREEHFPMGRQQNSHDFFPISQPYVPSPFGIFPPTQENRASSIRFSGHNCQWLGNLPTVGNQNPSPSSFRVLRACDTCQSVPNQYREASHPIWPSSMIPPQSQYKPVSLNINQSTNPGTLSQASNNENTWNLNFVAANGKQKCGPNPEFSFGCKHAAGVSSSSSRPIDNFSSESSIPALHLLSLLDPRLRSTTPADQHGNTKFTKRHFPPANQSKEFIELQTGDSSKSAYSTKQIPFDLYSKRFTQEPSRKSFPITPPIGTSSLSFQNASWSPHHQEKKTKRKDTFAPVYNTHEKPVFASSNDQAKFQLLGASNSMMLPLKFHMTDKEKKQKRKAESCNNNASAGPVKNSSGPIVCSVNRNPADFTIPEPGNVYMLTGEHLKVRKRTTFKKKPAVCKQDAMKQTKKPVCPPTQNA	binds	no binding	
VERNALIZATION2 (VRN2) (protein, UniProt Q8W5B1 1-440) MCRQNCRAKSSPEEVISTDENLLIYCKPVRLYNIFHLRSLGNPSFLPRCLNYKIGAKRKRKSRSTGMVVFNYKDCNNTLQRTEVREDCSCPFCSMLCGSFKGLQFHLNSSHDLFEFEFKLLEEYQTVNVSVKLNSFIFEEEGSDDDKFEPFSLCSKPRKRRQRGGRNNTRRLKVCFLPLDSPSLANGTENGIALLNDGNRGLGYPEATELAGQFEMTSNIPPAIAHSSLDAGAKVILTTEAVVPATKTRKLSAERSEARSHLLLQKRQFYHSHRVQPMALEQVMSDRDSEDEVDDDVADFEDRQMLDDFVDVNKDEKQFMHLWNSFVRKQRVIADGHISWACEVFSRFYEKELHCYSSLFWCWRLFLIKLWNHGLVDSATINNCNTILENCRNTSVTNNNNNSVDHPSDSNTNNNNIVDHPNDIKNKNNVDNKDNNSRDK	binds	no binding	
CURLY LEAF (CLF), P93831 1-902 (protein) MASEASPSSSATRSEPPKDSPAEERGPASKEVSEVIESLKKKLAADRCISIKKRIDENKKNLFAITQSFMRSSMERGGSCKDGSDLLVKRQRDSPGMKSGIDESNNNRYVEDGPASSGMVQGSSVPVKISLRPIKMPDIKRLSPYTTWVFLDRNQRMTEDQSVVGRRRIYYDQTGGEALICSDSEEEAIDDEEEKRDFLEPEDYIIRMTLEQLGLSDSVLAELASFLSRSTSEIKARHGVLMKEKEVSESGDNQAESSLLNKDMEGALDSFDNLFCRRCLVFDCRLHGCSQDLIFPAEKPAPWCPPVDENLTCGANCYKTLLKSGRFPGYGTIEGKTGTSSDGAGTKTTPTKFSSKLNGRKPKTFPSESASSNEKCALETSDSENGLQQDTNSDKVSSSPKVKGSGRRVGRKRNKNRVAERVPRKTQKRQKKTEASDSDSIASGSCSPSDAKHKDNEDATSSSQKHVKSGNSGKSRKNGTPAEVSNNSVKDDVPVCQSNEVASELDAPGSDESLRKEEFMGETVSRGRLATNKLWRPLEKSLFDKGVEIFGMNSCLIARNLLSGFKSCWEVFQYMTCSENKASFFGGDGLNPDGSSKFDINGNMVNNQVRRRSRFLRRRGKVRRLKYTWKSAAYHSIRKRITEKKDQPCRQFNPCNCKIACGKECPCLLNGTCCEKYCGCPKSCKNRFRGCHCAKSQCRSRQCPCFAADRECDPDVCRNCWVIGGDGSLGVPSQRGDNYECRNMKLLLKQQQRVLLGISDVSGWGAFLKNSVSKHEYLGEYTGELISHKEADKRGKIYDRENCSFLFNLNDQFVLDAYRKGDKLKFANHSPEPNCYAKVIMVAGDHRVGIFAKERILAGEELFYDYRYEPDRAPAWAKKPEAPGSKKDENVTPSVGRPKKLA			binds

Second part, the binder after the results:

binding [1]	binding [2]	binding [3]	Binder
binds	no binding		LIKE HETEROCHROMATIN PROTEIN 1 (LHP1) (protein, UniProt Q946J8 1-445) MKGASGAVKKKPQVLNEAGEAETAVETVGESRKISGDGGFGSDDGGGGGGGGSGESILREIGDDRPTEDGDEEEEEDEDEDDGGDEEDEEGEGEGGQEERPKLDEGFYEIEAIRRKRVRKGKVQYLIKWRGWPETANTWEPLENLQSIADVIDAFEGSLKPGKPGRKRKRKYAGPHSQMKKKQRLTSTSHDATEKSDSSTSLNNSSLPDIPDPLDLSGSSLLNRDVEAKNAYVSNQVEANSGSVGMARQVRLIDNEKEYDPTLNELRGPVNNSNGAGCSQGGGIGSEGDNVRPNGLLKVYPKELDKNSRFIGAKRRKSGSVKRFKQDGSTSNNHTAPTDQNLTPDLTTLDSFGRIARMGNEYPGVMENCNLSQKTKIEELDITKILKPMSFTASVSDNVQEVLVTFLALRSDGKEALVDNRFLKAHNPHLLIEFYEQHLKYNRTP
		binds	FIE, Q9LT47 1-369 (protein) MSKITLGNESIVGSLTPSNKKSYKVTNRIQEGKKPLYAVVFNFLDARFFDVFVTAGGNRITLYNCLGDGAISALQSYADEDKEESFYTVSWACGVNGNPYVAAGGVKGIIRVIDVNSETIHKSLVGHGDSVNEIRTQPLKPQLVITASKDESVRLWNVETGICILIFAGAGGHRYEVLSVDFHPSDIYRFASCGMDTTIKIWSMKEFWTYVEKSFTWTDDPSKFPTKFVQFPVFTASIHTNYVDCNRWFGDFILSKSVDNEILLWEPQLKENSPGEGASDVLLRYPVPMCDIWFIKFSCDLHLSSVAIGNQEGKVYVWDLKSCPPVLITKLSHNQSKSVIRQTAMSVDGSTILACCEDGTIWRWDVITK
		binds	EMBRYONIC FLOWER2 (EMF2), Q8L6Y4 1-631 (protein) MPGIPLVSRETSSCSRSTEQMCHEDSRLRISEEEEIAAEESLAAYCKPVELYNIIQRRAIRNPLFLQRCLHYKIEAKHKRRIQMTVFLSGAIDAGVQTQKLFPLYILLARLVSPKPVAEYSAVYRFSRACILTGGLGVDGVSQAQANFLLPDMNRLALEAKSGSLAILFISFAGAQNSQFGIDSGKIHSGNIGGHCLWSKIPLQSLYASWQKSPNMDLGQRVDTVSLVEMQPCFIKLKSMSEEKCVSIQVPSNPLTSSSPQQVQVTISAEEVGSTEKSPYSSFSYNDISSSSLLQIIRLRTGNVVFNYRYYNNKLQKTEVTEDFSCPFCLVKCASFKGLRYHLPSTHDLLNFEFWVTEEFQAVNVSLKTETMISKVNEDDVDPKQQTFFFSSKKFRRRRQKSQVRSSRQGPHLGLGCEVLDKTDDAHSVRSEKSRIPPGKHYERIGGAESGQRVPPGTSPADVQSCGDPDYVQSIAGSTMLQFAKTRKISIERSDLRNRSLLQKRQFFHSHRAQPMALEQVLSDRDSEDEVDDDVADFEDRRMLDDFVDVTKDEKQMMHMWNSFVRKQRVLADGHIPWACEAFSRLHGPIMVRTPHLIWCWRVFMVKLWNHGLLDARTMNNCNTFLEQLQI
		binds	MSI1, O22467 1-424 (protein) MGKDEEEMRGEIEERLINEEYKIWKKNTPFLYDLVITHALEWPSLTVEWLPDREEPSGKDYSVQKMILGTHTSESEPNYLMLAQVQLPLDDTESEARQYDDDRSEFGGFGCATGKVQIIQQINHDGEVNRARYMPQNPFIIATKTVNAEVYVFDYSKHPSKPPLDGACNPDLKLRGHSSEGYGLSWSKFKQGHLLSGSDDAQICLWDINATPKNKSLDAQQIFKAHEGVVEDVAWHLRHEYLFGSVGDDQYLLIWDLRSPSASKPVQSVVAHSMEVNCLAFNPFNEWVVATGSTDKTVKLFDLRKLSTALHTFDSHKEEVFQVGWNPKNETILASCCLGRRLMVWDLSRIDEEQTVEDAEDGPPELLFIHGGHTSKISDFSWNPCEDWVISSVAEDNILQIWQMAENIYHDEDDAPGEEPSKAS
